According to patent publication US20030091541A1, “METHOD OF INDUCING IMMUNOTOLERANCE IN AN ORGAN TRANSPLANTATION RECIPIENT” (priority 1997, published 2003):
At least one compound was matched to its structure with a doubt left.

System: skin grafts (allogeneic to the donor) in B6 mice
Test: Engraftment of skin grafts after p.v. and i.v. bone marrow cells combined with an immunosuppressant (Test Example 2)
Type: in vivo, mouse
Settings: immunosuppressant i.p. at day 2 and day 5 after portal administration

With `C=CC[C@@H]1/C=C(\C)C[C@H](C)C[C@H](OC)[C@H]2O[C@@](O)(C(=O)C(=O)N3CCCC[C@H]3C(=O)O[C@H](/C(C)=C/[C@@H]3CC[C@@H](O)[C@H](OC)C3)[C@H](C)[C@@H](O)CC1=O)[C@H](C)C[C@@H]2OC` [FK506] the “effect of adding an immunosuppressant to p.v. + i.v. bone marrow cells on engraftment rate” value was “improved engraftment rate”.
